Results are given in words; binding and its absence hold for the method and conditions named. In cells and extracts the contact can be indirect. Some results given as binding are weak or reduced against the parent protein; the word gives no strength. Sequences can lack the tags named with a protein.
Target: Myc-Prp19 (Pre-mRNA processing Factor 19) (human) (UniProt Q9UMS4)
Assay: co-IP; HEK-293T cells transiently co-transfected with Flag-SKAP and Myc-Prp19, lysed in NETN buffer after 48 hours; anti-Myc beads or anti-Flag beads; immunoblot

Chains of the proteins cited; added tags and fusions are not shown.
UniProt Q9UMS4: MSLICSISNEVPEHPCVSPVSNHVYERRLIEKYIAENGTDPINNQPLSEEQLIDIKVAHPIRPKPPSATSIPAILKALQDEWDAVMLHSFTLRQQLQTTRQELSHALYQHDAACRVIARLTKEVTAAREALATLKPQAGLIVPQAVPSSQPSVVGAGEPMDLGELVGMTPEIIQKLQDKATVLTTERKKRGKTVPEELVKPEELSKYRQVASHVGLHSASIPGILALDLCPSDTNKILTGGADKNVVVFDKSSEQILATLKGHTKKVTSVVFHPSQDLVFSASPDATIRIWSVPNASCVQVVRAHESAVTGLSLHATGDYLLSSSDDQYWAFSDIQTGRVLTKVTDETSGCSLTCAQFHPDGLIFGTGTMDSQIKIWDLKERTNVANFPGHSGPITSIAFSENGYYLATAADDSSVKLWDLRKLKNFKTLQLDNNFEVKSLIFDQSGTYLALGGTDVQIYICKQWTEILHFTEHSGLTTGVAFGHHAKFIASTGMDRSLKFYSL

binding: binds
B1: Flag-SKAP (small kinetochore associated protein) (protein, UniProt Q9Y448 1-316)
chain: MAAPEAPPLDRVFRTTWLSTECDSHPLPPSYRKFLFETQAADLAGGTTVAAGNLLNESEKDCGQDRRAPGVQPCRLVTMTSVVKTVYSLQPPSALSGGQPADTQTRATSKSLLPVRSKEVDVSKQLHSGGPENDVTKITKLRRENGQMKATDTATRRNVRKGYKPLSKQKSEEELKDKNQLLEAVNKQLHQKLTETQGELKDLTQKVELLEKFRDNCLAILESKGLDPALGSETLASRQESTTDHMDSMLLLETLQEELKLFNETAKKQMEELQALKVKLEMKEERVRFLEQQTLCNNQVNDLTTALKEMEQLLEM
